According to US20110145936A1, “Genetically Modified Rat Models for Pharmacokinetics” (priority 2009, published 2011):
Where two headings read alike, the source gives them in different places. At least one compound was matched to its structure with a doubt left.

Sequences of proteins named here, by UniProt entry; tags and fusion partners are left off. Residues count along the entry.
UniProt A0A8I6AB70, 1-502: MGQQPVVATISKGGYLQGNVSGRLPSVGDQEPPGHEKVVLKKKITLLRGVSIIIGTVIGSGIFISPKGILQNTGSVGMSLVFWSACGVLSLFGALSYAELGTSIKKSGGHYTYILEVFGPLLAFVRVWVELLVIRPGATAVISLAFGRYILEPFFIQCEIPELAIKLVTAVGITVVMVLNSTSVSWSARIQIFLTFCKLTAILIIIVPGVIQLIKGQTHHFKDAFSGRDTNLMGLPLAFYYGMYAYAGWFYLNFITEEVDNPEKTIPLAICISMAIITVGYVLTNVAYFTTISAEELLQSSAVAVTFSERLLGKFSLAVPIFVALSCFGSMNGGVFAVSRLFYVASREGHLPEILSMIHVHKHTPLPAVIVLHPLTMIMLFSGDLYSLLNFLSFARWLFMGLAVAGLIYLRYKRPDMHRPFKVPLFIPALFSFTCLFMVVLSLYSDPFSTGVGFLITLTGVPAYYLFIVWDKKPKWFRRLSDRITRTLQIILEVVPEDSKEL

Legend:
Slc7a11 [1] = test: Geldanamycin sensitivity in Slc7a11-/- KO rats; type: in vivo, Rattus norvegicus; details: Slc7a11-/- KO rats
Slc7a11 [2] = molecular target: T1, Slc7a11 (Rattus norvegicus, UniProt A0A8I6AB70); test: Geldanamycin sensitivity in Slc7a11-/- KO rats; type: in vivo; details: WT rats
T1 construct: Since WT rats are resistant to GA, this drug transport mechanism was validated through Slc7a11; from tissue; host or cells: whole animal: WT rats versus F344 Slc7a11-/- transposon knockout rats

Slc7a11 [3] = molecular target: T2, Slc7a11 (Mus musculus, UniProt Q9WTR6); details: cited from earlier work
T2 construct: Mice deficient for Slc7a11 are; host or cells: whole animal: WT versus Slc7a11-/- mice
T2 sequence (Q9WTR6 1-502): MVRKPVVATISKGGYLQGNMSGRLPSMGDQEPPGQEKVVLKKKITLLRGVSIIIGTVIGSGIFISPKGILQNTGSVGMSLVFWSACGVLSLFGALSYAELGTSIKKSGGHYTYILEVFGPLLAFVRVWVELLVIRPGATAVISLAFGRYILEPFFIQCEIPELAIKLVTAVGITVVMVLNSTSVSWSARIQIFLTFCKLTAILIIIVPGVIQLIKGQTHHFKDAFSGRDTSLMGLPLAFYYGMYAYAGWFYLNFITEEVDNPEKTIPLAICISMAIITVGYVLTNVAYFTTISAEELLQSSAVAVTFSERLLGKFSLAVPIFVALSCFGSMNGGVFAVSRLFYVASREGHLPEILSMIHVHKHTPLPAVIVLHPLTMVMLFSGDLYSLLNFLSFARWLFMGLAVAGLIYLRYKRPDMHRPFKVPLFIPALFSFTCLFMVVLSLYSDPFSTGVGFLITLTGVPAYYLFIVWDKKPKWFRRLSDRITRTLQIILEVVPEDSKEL
T2 sequence (P10852 1-526 partner): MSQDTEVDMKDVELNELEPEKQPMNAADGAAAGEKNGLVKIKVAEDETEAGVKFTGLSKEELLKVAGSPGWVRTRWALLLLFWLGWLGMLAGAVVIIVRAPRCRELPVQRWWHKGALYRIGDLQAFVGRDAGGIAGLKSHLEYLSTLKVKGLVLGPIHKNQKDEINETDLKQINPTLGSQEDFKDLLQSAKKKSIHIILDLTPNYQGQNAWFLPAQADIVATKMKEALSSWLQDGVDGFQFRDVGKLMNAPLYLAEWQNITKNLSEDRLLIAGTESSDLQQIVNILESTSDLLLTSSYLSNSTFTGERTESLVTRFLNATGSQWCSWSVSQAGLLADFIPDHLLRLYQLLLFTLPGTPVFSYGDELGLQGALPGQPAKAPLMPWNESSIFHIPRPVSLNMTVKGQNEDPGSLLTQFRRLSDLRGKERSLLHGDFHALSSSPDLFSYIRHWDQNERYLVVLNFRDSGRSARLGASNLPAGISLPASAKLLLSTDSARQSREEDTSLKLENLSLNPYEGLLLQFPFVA

Slc7a11 [4] = molecular target: T3, Slc7a11 (Homo sapiens, UniProt Q9UPY5); details: GA resistant tumor cells, Slc7a11 silenced; cited from earlier work
T3 sequence (Q9UPY5 1-501): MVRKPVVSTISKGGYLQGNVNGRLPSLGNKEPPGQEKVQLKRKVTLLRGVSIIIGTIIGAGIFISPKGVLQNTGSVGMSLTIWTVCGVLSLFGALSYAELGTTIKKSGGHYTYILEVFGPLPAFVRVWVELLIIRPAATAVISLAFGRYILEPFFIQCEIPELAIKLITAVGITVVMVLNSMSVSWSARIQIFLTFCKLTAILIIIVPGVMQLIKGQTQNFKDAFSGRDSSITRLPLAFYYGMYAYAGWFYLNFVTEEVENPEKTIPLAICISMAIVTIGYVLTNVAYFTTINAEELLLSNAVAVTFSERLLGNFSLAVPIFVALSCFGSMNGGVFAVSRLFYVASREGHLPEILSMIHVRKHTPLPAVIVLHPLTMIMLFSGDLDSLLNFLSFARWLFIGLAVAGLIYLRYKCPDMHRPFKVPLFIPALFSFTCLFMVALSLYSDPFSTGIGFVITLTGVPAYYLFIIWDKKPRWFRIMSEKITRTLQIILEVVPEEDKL
T3 sequence (P08195 1-529 partner): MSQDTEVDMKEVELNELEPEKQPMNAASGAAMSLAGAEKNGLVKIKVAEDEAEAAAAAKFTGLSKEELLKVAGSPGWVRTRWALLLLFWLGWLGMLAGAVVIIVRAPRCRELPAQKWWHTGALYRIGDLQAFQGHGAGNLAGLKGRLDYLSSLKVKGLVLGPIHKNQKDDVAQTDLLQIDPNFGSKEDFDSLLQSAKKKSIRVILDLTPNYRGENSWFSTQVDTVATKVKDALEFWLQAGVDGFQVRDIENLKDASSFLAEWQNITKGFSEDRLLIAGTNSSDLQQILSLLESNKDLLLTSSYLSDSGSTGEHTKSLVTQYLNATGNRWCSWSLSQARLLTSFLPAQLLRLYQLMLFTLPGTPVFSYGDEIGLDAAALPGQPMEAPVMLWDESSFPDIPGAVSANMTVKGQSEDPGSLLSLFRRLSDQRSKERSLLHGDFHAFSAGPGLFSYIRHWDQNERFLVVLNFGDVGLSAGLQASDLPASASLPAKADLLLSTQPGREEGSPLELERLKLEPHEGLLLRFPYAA

## COC1=C2C[C@@H](C)C[C@H](OC)[C@H](O)[C@@H](C)/C=C(\C)[C@H](OC(N)=O)[C@@H](OC)/C=C\C=C(/C)C(=O)NC(=CC1=O)C2=O [Geldanamycin]
Slc7a11 [1]
  response to tumor growth inhibitor: sensitive
Slc7a11 [2]
  response to tumor growth inhibitor: resistant
Slc7a11 [3]; WT mice
  KO phenotype: response to Geldanamycin: resistant in WT
Slc7a11 [3]; gene Slc7a11
  Drug resistance/sensitivity: (R)
Slc7a11 [3]; mice deficient for Slc7a11
  KO phenotype: response to Geldanamycin: sensitive to Geldanamycin, and
Slc7a11 [4]
  sensitivity after RNAi mediated silencing of Slc7a11: hypersensitive
